Source: PMC6182170

By UniProt entry, the sequences of proteins in these tests, tags left out. Where a name states a change or a piece, a line headed by the entry shows the natural chain unless it says otherwise.
UniProt Q22618: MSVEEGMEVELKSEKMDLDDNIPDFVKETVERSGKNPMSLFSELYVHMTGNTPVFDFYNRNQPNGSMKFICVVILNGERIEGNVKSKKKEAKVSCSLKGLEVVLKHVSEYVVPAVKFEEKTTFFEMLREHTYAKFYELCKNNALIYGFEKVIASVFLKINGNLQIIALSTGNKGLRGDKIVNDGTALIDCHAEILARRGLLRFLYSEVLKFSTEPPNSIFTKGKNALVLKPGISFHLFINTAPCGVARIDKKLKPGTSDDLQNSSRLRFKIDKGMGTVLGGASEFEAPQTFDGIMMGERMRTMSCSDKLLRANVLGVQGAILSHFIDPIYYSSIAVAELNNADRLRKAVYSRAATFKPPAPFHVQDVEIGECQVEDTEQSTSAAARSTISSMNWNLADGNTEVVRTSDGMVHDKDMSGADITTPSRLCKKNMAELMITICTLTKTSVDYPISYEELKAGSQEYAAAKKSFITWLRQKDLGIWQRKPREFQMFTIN
UniProt Q9U3D6: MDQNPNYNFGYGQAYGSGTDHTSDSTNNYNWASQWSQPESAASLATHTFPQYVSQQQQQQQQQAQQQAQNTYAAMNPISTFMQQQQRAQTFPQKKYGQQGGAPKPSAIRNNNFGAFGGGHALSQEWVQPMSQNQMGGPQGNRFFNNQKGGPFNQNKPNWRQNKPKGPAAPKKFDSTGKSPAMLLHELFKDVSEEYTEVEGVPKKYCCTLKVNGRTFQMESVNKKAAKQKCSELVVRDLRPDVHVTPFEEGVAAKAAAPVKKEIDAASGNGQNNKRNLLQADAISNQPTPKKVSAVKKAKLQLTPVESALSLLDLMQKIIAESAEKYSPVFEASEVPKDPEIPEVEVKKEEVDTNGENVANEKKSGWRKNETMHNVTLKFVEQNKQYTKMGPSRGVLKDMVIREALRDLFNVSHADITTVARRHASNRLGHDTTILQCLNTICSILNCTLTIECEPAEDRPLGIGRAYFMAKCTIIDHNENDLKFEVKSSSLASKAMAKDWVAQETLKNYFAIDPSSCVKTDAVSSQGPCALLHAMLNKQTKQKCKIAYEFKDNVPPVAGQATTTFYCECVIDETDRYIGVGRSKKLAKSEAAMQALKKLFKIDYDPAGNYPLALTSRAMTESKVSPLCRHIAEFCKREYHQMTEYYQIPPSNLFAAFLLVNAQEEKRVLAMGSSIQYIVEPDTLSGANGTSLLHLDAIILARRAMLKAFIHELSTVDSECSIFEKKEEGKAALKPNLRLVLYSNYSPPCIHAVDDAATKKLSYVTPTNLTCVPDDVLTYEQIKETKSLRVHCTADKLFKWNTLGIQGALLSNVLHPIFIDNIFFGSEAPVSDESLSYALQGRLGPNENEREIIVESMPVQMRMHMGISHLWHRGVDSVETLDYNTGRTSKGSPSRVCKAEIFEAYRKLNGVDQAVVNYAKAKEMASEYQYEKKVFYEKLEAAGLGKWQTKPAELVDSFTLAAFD

Biological target: Recombinant WT ADR-2 (C. elegans) (UniProt Q22618)
Assay: condition: 3 nM ADR-1 protein; 5 nM ADR-2 loaded on the beads; pull-down; in vitro pulldown: recombinant ADR-2 (5 nM) held on anti-rabbit IgG Dynabeads by ADR-2 antibody PA6496, 4°C, BSA block; ADR-1 proteins (3 nM) added in EMSA buffer (50 mM KCl, 10 mM Tris-HCl pH 8.0, 10% glycerol, 1 mM MgCl2) for 1 h, with or without 46 bp dsRNA (0-10 nM); also after micrococcal nuclease treatment of the WT proteins; immunoblot with ADR-1 and ADR-2 antibodies; both purified

binding: no binding
Substance: Recombinant ADR-1 dsRBD1 + dsRBD2 double mutant (KKxxK into EAxxA in both dsRBDs) (from UniProt Q9U3D6)

No constants are given. Whether binding was seen depends on the method and setting.
